These are yes or no findings as the source states them, for the method shown. Binding can be weak; no strength is given.

The target in assay [1] is T1, Simplagrin (Simulium platelet aggregation inhibitor), recombinant (Simulium nigrimanum) (UniProt D1FQ14).
T1 sequence: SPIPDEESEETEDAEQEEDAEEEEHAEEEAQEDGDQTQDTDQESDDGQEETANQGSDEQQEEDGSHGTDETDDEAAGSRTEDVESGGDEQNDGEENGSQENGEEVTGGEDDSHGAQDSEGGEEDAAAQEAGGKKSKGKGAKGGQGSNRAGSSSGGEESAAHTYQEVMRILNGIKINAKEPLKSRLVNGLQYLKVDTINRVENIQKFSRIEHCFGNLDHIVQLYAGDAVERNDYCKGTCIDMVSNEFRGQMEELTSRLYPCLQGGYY
Briefly: SPR; initial screening: Simplagrin immobilised on a CM5 chip, analytes injected for 120 s at 20 µL/min, dissociation 400 s; HBS-P (10 mM Hepes pH 7.4, 150 mM NaCl, 0.005% P20); both purified.

For assay [2], the target named is Soluble human collagen type IV (human). Put plainly: ELISA; solid phase: collagens (25 µg/mL in PBS pH 7.4) coated overnight at 4°C, Simplagrin 0-3 µM in PBS-T for two hours, detected with anti-Simplagrin antibodies; both purified.
Assay [3] has as its target Soluble human collagen type V (human). The assay is described as above.

With Soluble human collagen type IV, in assay [1], the binding entry is reported as “binds”.

Regarding Soluble human collagen type VI, the binding entry in assay [1] is recorded as “binds”.

As for Soluble human collagen type V, the binding result in assay [1] is listed as “binds”.

B1: Simplagrin (Simulium platelet aggregation inhibitor), recombinant (natural protein, Simulium nigrimanum, UniProt D1FQ14 21-286, looked up)
chain: SPIPDEESEETEDAEQEEDAEEEEHAEEEAQEDGDQTQDTDQESDDGQEETANQGSDEQQEEDGSHGTDETDDEAAGSRTEDVESGGDEQNDGEENGSQENGEEVTGGEDDSHGAQDSEGGEEDAAAQEAGGKKSKGKGAKGGQGSNRAGSSSGGEESAAHTYQEVMRILNGIKINAKEPLKSRLVNGLQYLKVDTINRVENIQKFSRIEHCFGNLDHIVQLYAGDAVERNDYCKGTCIDMVSNEFRGQMEELTSRLYPCLQGGYY
notes: Simplagrin (cluster Sim-50), salivary gland protein of Simulium nigrimanum; precursor of 286 aa with a predicted signal peptide of 20 aa; the construct holds the mature protein and a 6X-His tag before the stop codon; Synthetic codon optimised gene in the VR2001 TOPO vector; also called Sim-50; recombinant Simplagrin; source: FreeStyle293 F (HEK293) cells, transfected, secreted; purified (Ni2+ …)
Take B1: the binding result in assay [2] and in assay [3] was “binds” throughout.
